# Data published in PubChem BioAssay AID504444 (National Center for Advancing Translational Sciences (NCATS), 2011).
# The whole screen tested about 360,000 compounds, of which about 7,500 (2.1%) were called active. The shares of active, inactive and inconclusive entries below differ from those in the screen. The call rests on the fitted dose curve; in most records, active means well fitted inhibition curve with a large enough effect; inconclusive means small, poorly fitted or top-dose-only effect, or effect the other way; inactive means flat fitted curve, though single readings scatter. Where the call is inconclusive, the potency comes from a doubtful curve fit.
# Assay: Nrf2 qHTS screen for inhibitors; further: nearly all actives have a fitted effect of over 60% in size
# Conditions: A549 ARE-Fluc reporter, luciferase luminescence, 18-24 h; activity change, negative = inhibition: at 46 µM (top of the series)
# Summary of the method: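 A549 ARE_Fluc cells (5000/well, 5% FBS OPTI-MEM) pre-incubated 2 h, then treated with compounds 18-24 h at 37C/5% CO2 in concentration-response. CellTiter-Fluor viability read first; BugLite luciferase luminescence after 15 min at room temperature gives Nrf2 activity.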
# On the % scale 0 is the no-effect control and ±100 the full control effect; potency means the concentration at half of the fitted maximal effect.
Compound,"activity change, negative = inhibition",Potency
COc1ccc(-n2nnnc2C2CCN(S(=O)(=O)c3cccc(C(F)(F)F)c3)CC2)cc1,inactive: 2.43%,
CCN(C(=O)c1ccc2c(Cl)c3c(nc2c1)CCC3)c1ccc(C)c(C)c1,,"inconclusive: 20.6 µM [falling, single point]"
O=C(COc1ccc2c(c1)C(=O)CC1(CCCCC1)O2)NCc1ccccn1,,"inconclusive: 32.6 µM [falling, single point]"
COc1ccc(CNC(=O)c2c(O)c3cc(OC)c(OC)cc3[nH]c2=O)cc1OC,inactive: 0.719%,
O=C(CSc1nnnn1-c1ccccc1)N1CCNC1=O,,"inconclusive: 23.1 µM [activator, single point]"
CC(=O)c1c(C)[nH]c(C(=O)OCc2ccccc2)c1C,,"inconclusive: 3.66 µM [falling, full curve, poor fit]"
CCOC(=O)C(C(=O)N(C)Cc1ccccc1)C1CCCCC1 (stereo not drawn),,"inconclusive: 7.31 µM [falling, partial curve]"
CC(C)c1ccccc1OCC(=O)Nc1cc(S(=O)(=O)N2CCOCC2)ccc1N1CCCC1,,"inconclusive: 29.1 µM [falling, single point]"
O=C(CC12CCC(CC1)C2)NCc1ccc2c(c1)OCO2,,"inconclusive: 10.3 µM [activator, partial curve]"
Cc1ccc(S(=O)(=O)N2CCSC2)cc1C,,"inconclusive: 18.4 µM [falling, single point]"
Cc1ccccc1C1c2[nH]c3ccccc3c2C[C@H]2C(=O)N(c3ccccc3C(=O)NCCCN3CCOCC3)C(=O)N12 (stereo partly drawn),,"inconclusive: 18.4 µM [falling, partial curve, poor fit]"
Cc1cc2c(cc1NS(=O)(=O)c1ccc(Br)cc1)n(C)c(=O)c(=O)n2C,,"inconclusive: 32.6 µM [falling, single point]"
CC(C)NC(NC(=O)/C=C/c1ccccc1)C(Cl)(Cl)Cl (stereo not drawn),,"inconclusive: 23.1 µM [falling, partial curve, poor fit]"
COc1ccc(-c2cc(C(=O)Nc3cc(C)on3)c3ccccc3n2)c(OC)c1,,"inconclusive: 3.66 µM [activator, partial curve, poor fit]"
Cc1ccc(S(=O)(=O)CCC#N)cc1,inactive: 9.27%,
O=C1Nc2ccccc2O/C1=C\c1ccccc1,,"inconclusive: 2.59 µM [falling, full curve, poor fit]"
COc1ccc(-c2nc3ccccn3c2NCc2ccc3c(c2)OCO3)cc1,inactive: 29.6%,
COc1cc(NC(=O)c2cccc(Cl)c2Cl)ccc1NC(=O)c1cc2ccccc2o1,,"inconclusive: 6.51 µM [falling, single point]"
COC(=O)c1cnn(-c2nc(OC)cc(OC)n2)c1C,inactive: -0.674%,
O=C(/C=C/Nc1cccc(C(F)(F)F)c1)c1ccc(Oc2ncccn2)cc1,inactive: 0.163%,
CCC(=O)N1CCc2cc(Br)cc(S(=O)(=O)CCC(=O)Nc3cccc(Cl)c3)c21,inactive: -9.04% [at 9.27 µM],
Cc1nc2ccccc2n1CCOc1ccc(F)cc1,,active: 20.6 µM
COc1ccc(NC(=O)CN2CCN(c3ccccc3F)CC2)cc1,,"inconclusive: 29.1 µM [activator, single point]"

Compound,"activity change, negative = inhibition",Potency
Cc1cc(NC(=O)CSc2nnc3c4c(C)c(C)sc4ncn23)no1,,"inconclusive: 8.2 µM [falling, full curve, poor fit]"
CCOC(=O)C1CCCN(C(=O)C2CCN(S(=O)(=O)c3ccc4ccccc4c3)CC2)C1 (stereo not drawn),,"inconclusive: 23.1 µM [falling, partial curve, poor fit]"
Cc1cc(NC(=O)/C=C/c2ccccc2Cl)no1,,"inconclusive: 6.51 µM [activator, partial curve]"
COc1ccc(NC(=S)NC(=O)c2ccc(Br)o2)cc1,,"inconclusive: 18.4 µM [activator, partial curve, poor fit]"
Cc1ccc(NC2CCCN(C(=O)c3cccs3)C2)cc1C (stereo not drawn),,"inconclusive: 29.1 µM [falling, single point]"
COc1ccccc1C(=O)Nc1ccc(-c2nnn(CC(=O)N3CCN(C(=O)c4ccco4)CC3)n2)cc1,,"inconclusive: 9.2 µM [falling, partial curve]"
COc1ccc(CS(=O)/C(Cl)=C(/Cl)C(=O)Nc2ccc(OC)nc2)cc1 (stereo not drawn),,"inconclusive: 4.11 µM [activator, single point]"
CCOc1ccc(C(=O)N(Cc2ccc(C(C)C)cc2)Cc2ccco2)cc1,,"inconclusive: 18.4 µM [falling, partial curve, poor fit]"
CCOc1cccc(C(=O)Nc2cccc(C(C)=O)c2)c1,,"inconclusive: 13 µM [activator, partial curve]"
CCc1ccc(OCCSc2nc3ccccc3n2CC(=O)N2CCCCC2)cc1,,"inconclusive: 29.1 µM [falling, single point]"
COc1cc2ccccc2cc1C(=O)N/N=C/c1ccc2c(c1)OCO2,inactive: 7.1%,
COc1ccc2cc(C(=O)N3CCN(c4ccc(F)cc4)CC3)[nH]c2c1,,"inconclusive: 32.6 µM [falling, partial curve, poor fit]"
O=C(Nc1ccccc1Cl)c1ccc(S(=O)(=O)NCC2CCCO2)cc1 (stereo not drawn),,"inconclusive: 23.1 µM [falling, single point]"
CCOC(=O)c1sc(=S)n(-c2ccccc2Cl)c1SC,,"inconclusive: 25.9 µM [falling, partial curve, poor fit]"
CC(C)(C)OC(=O)N1CCC(c2c(C(=O)NCc3cccs3)cnn2-c2cccc(F)c2)CC1,inactive: -24.3%,
CC(=O)CC(=O)Nc1ccc(Nc2ccccc2)cc1,inactive: 7.21%,
Cc1cc(C(=O)CSc2nc3ccccc3o2)c(C)n1C1CC1,,"inconclusive: 29.1 µM [falling, single point]"
c1csc(-c2csc(-c3cccs3)n2)c1,,"inconclusive: 16.4 µM [activator, partial curve]"
O=C(NC(=S)Nc1ccc(NC(=O)c2cccs2)cc1)c1cc2ccccc2o1,,"inconclusive: 20.6 µM [falling, single point]"
CC(C)COc1cccc(C(=O)Nc2ccc(S(=O)(=O)N3CCOCC3)cc2)c1,,"inconclusive: 18.4 µM [falling, single point]"
O=C(O)c1cc(S(=O)(=O)NCCN2CCNC2=O)ccc1O,,"inconclusive: 11.6 µM [falling, partial curve]"
Cc1occc1C(=O)NCc1cccc(CNC(=O)c2ccoc2C)c1,inactive: 0.09%,
CC1CCN(S(=O)(=O)c2ccc3[nH]cc(C(=O)NCCN4CCOCC4)c(=O)c3c2)CC1,inactive: -6.14%,

Compound,"activity change, negative = inhibition",Potency
CC(OC(=O)c1ccc([N+](=O)[O-])s1)C(=O)NC1CCCCC1C (stereo not drawn),inactive: -25.7%,
O=C(NCCCO)c1ccc(CSc2nc3ccccc3[nH]2)cc1,,"inconclusive: 29.1 µM [activator, single point]"
Cc1csc2ncc(C(=O)NCCc3ccccc3)c(=O)n12,,"inconclusive: 8.2 µM [activator, partial curve]"
CCc1ccc(NC(=O)C2CCN(S(=O)(=O)c3ccc4c(c3)NC(=O)CO4)CC2)cc1,,"inconclusive: 32.6 µM [falling, partial curve, poor fit]"
CCOC(=O)c1ccccc1NC(=O)CSc1nc2c(sc(=S)n2CC)c(=O)[nH]1,inactive: -13.5%,
Cc1ccc(S(=O)(=O)NCC(=O)OCc2nnc(-c3ccccc3)o2)cc1,inactive: 7.14%,
CC1=C(C(=O)OC2CCCCC2)C(c2ccc(N(C)C)cc2)NC(=O)N1 (stereo not drawn),,"inconclusive: 25.9 µM [falling, partial curve, poor fit]"
CSc1nnc(-c2ccco2)c(-c2ccco2)n1,inactive: -1.86%,
CN(C)c1ccc(Nc2ncnc3ccc(Br)cc23)cc1,,"inconclusive: 11.6 µM [falling, partial curve, poor fit]"
CCCOc1cccc(C2C(C(=O)c3ccco3)=C(O)C(=O)N2c2nnc(C)s2)c1 (stereo not drawn),inactive: 0.546%,
COc1cccc(/C=N/NC(=O)c2cccc3ccccc23)c1OC,,"inconclusive: 14.6 µM [falling, partial curve]"
Cc1cc(C)cc(NC(=O)CN2CCN(c3ccccc3)CC2)c1,inactive: 3.34%,
Cc1cc(C(=O)O)ccc1NCc1ccncc1,inactive: -8.11%,
CC(=O)Nc1ccc(NC(=O)c2nc(S(=O)(=O)Cc3ccc(F)cc3)ncc2Cl)cc1,,"inconclusive: 29.1 µM [activator, single point]"
CCCOc1ccc(C(=O)NNC(=S)NC(=O)c2cc(-c3ccc(Cl)cc3)nc3ccccc23)cc1,,active: 4.61 µM
COc1cccc(CNC(=O)c2cnc3c(-c4ccc(F)cc4)c(C)nn3c2C)c1,,"inconclusive: 32.6 µM [activator, partial curve, poor fit]"
O=C(N/N=C/c1cn(-c2ccccc2)nc1-c1cc2ccccc2o1)c1cccnc1,,"inconclusive: 8.2 µM [activator, partial curve]"
COc1cccc(NC(=O)c2ccc3c(c2)OCO3)c1,,"inconclusive: 0.517 µM [activator, full curve, poor fit]"
O=S(=O)(c1ccccc1Cl)N1CCC(O)(c2ccc3c(c2)OCO3)CC1,,"inconclusive: 32.6 µM [falling, single point]"
CCN(C(=O)c1cn(-c2cccc(OC)c2)c(=O)c2ccccc12)c1ccccc1C,inactive: -7.21%,
CC(=O)c1c(C)[nH]c(C(=O)Nc2cccc(S(=O)(=O)N3CCCCC3)c2)c1C,,"inconclusive: 16.4 µM [falling, single point]"
O=C(CCCn1c(=O)[nH]c2ccsc2c1=O)N1CCN(Cc2ccc3c(c2)OCO3)CC1,,"inconclusive: 0.146 µM [falling, full curve, poor fit]"

# Molecules above that contain a COOH group:
Compound,"activity change, negative = inhibition",Potency
O=C(O)c1cc(S(=O)(=O)NCCN2CCNC2=O)ccc1O,,"inconclusive: 11.6 µM [falling, partial curve]"
Cc1cc(C(=O)O)ccc1NCc1ccncc1,inactive: -8.11%,
